Assay results from patent US20080057529A1, “Method for Identifying Histone Deacetylase Inhibitors” (priority 2003, published 2008).

System: p21 minimal promoter
Test: Fluorometric β-lactamase activity assay in stable HeLa clone 1.17 (p21m-BLA)
Type: cell-based
Conditions: Homo sapiens, clone 1.17, about 13 hours treatment, means of 3 to 4 independent experiments
Protocol: All clones were screened for the presence of stably and functional integrated copies of the p21m-BLA reporter gene transcription cassette by performing a fluorometric β-lactamase activity assay after treatment with the HDAC inhibitor Apicidin at a concentration of 1 μM (saturating dose representing 100% of Bla gene activation, i.e., 100% of HDAC inhibition). A 100 μL aliquot of cells for each stable transformant in complete DMEM was plated into a well of a 96 well plate at about 36,000 cells per well for treatment with 1 μM Apicidin (saturating dose) and a 100 μL aliquot of cells was plated into a well of a 96 well plate at 24,000 cells per well for treatment with DMSO (vehicle control). Each plate also had four DMEM controls and four HeLa cell controls prepared in the same manner. After 4 hours, 25 μL of complete DMEM containing Apicidin at 5× final concentration or DMSO (5%) was added to each of the wells. The cells were then grown at 37° C., 5% CO2 for about 12 to 16 hours. Afterwards, the medium was removed and 100 μL of DMEM without serum and 25 μL of FRET labeled CCF2-AM Bla substrate diluted in the appropriate buffer according to the manufacturer recommendations were each added to the cells to give a final concentration of 1 μM CCF2-AM. Fluorescence was read at λex 405/20 λem 460/40 on a FLUOSTAR (BMG Labtechnologies, Offenburg Germany).

EC50: 1600 nM
SMILES: O=C(CCCCCCC(=O)Nc1ccccc1)NO [SAHA, suberoylanilide hydroxamic acid]
